Experimental findings from publication PMC4423205 are described below.

Protein sequences, listed by entry. Tags and fused reporters are not part of them. Residues count along the entry.
UniProt P13500, 24-99: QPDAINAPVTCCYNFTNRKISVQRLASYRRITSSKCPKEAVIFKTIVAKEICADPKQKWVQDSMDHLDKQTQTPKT
UniProt P13500, 24-99 H89Y: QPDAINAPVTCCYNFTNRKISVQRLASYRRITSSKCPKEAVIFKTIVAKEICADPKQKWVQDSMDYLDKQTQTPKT
UniProt P13500, 24-99 R41K: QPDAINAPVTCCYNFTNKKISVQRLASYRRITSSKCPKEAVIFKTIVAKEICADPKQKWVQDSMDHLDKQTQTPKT
UniProt P13500, 24-99 V45K: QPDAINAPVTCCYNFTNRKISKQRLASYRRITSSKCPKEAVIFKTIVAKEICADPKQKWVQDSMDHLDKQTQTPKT
UniProt P80098, 24-99: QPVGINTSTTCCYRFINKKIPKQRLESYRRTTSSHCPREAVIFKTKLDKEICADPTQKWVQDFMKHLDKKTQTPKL

The target in series [1] is CCL2 (MCP-1), wild type (Homo sapiens) (UniProt P13500). Kind of series: crystal structure. The note with it: 2.05 A, Sr2+, K+, Na+; all L-ribonucleotides; 2'-deoxy-2'-methylseleno-uridine at position 31; recombinant protein; synthetic backbone.
The target of series [2] is CCL2 (MCP-1), R&D Systems (Homo sapiens) (UniProt P13500). Kind of series: SPR. The note with it: all L-ribonucleotides (L-RNA, mirror image), SPR (Biacore 2000), complex formation in 20 mM HEPES pH 7.4, 100 mM NaCl, 5 mM KCl, 1 mM MgCl2, commercial protein, synthetic backbone.
Series [3] addresses CCL2 H66Y H89Y (Homo sapiens) (UniProt P13500). Kind of series: SPR. The settings on record: Kd and rates similar to wild type; all L-ribonucleotides (L-RNA, mirror image); SPR (Biacore 2000), chemokine immobilized on CM4/CM5, physiological running buffer, 37 C; complex formation in 20 mM HEPES pH 7.4, 100 mM NaCl, 5 mM KCl, 1 mM MgCl2; recombinant protein; synthetic backbone. A general note: Surface plasmon resonance follows binding to a sensor surface in real time, without labels.

Series [4] addresses CCL2 R18K R41K (Homo sapiens) (UniProt P13500). As to the kind of experiment: SPR. The settings on record: Kd not worse than wild type, on- and off-rate about 3-fold slower; all L-ribonucleotides (L-RNA, mirror image); SPR (Biacore 2000), chemokine immobilized on CM4/CM5, physiological running buffer, 37 C; complex formation in 20 mM HEPES pH 7.4, 100 mM NaCl, 5 mM KCl, 1 mM MgCl2; recombinant protein; synthetic backbone.

Series [5] addresses CCL2 V22K V45K (Homo sapiens) (UniProt P13500). Kind of series: SPR. The note with it: Kd and rates similar to wild type; all L-ribonucleotides (L-RNA, mirror image); SPR (Biacore 2000), chemokine immobilized on CM4/CM5, physiological running buffer, 37 C; complex formation in 20 mM HEPES pH 7.4, 100 mM NaCl, 5 mM KCl, 1 mM MgCl2; recombinant protein; synthetic backbone.
The target in series [6] is CCL7 (MCP-3) (Homo sapiens) (UniProt P80098). Kind of series: SPR. The note with it: all L-ribonucleotides (L-RNA, mirror image); SPR (Biacore 2000), chemokine immobilized on CM4/CM5, physiological running buffer, 37 C; complex formation in 20 mM HEPES pH 7.4, 100 mM NaCl, 5 mM KCl, 1 mM MgCl2; commercial protein; synthetic backbone.
Series [7] deals with CCL2 (MCP-1), wild type (Homo sapiens) (UniProt P13500). As to the kind of experiment: native PAGE and dynamic light scattering. The settings on record: 1 mM Mg2+, 1 mM Ca2+; all L-ribonucleotides (L-RNA, mirror image); recombinant protein; synthetic backbone.

For some of these results: No signal at the amounts used counts as a negative. For some of these results: The exact form of at least one protein or probe is not confirmed. For some of these results: A weaker result is weaker than the reference pair of the same experiment. For some of these results: At least one verdict rests on a figure or table, not on a statement of the authors.

For the sequence “GCACGUCCCUCACCGGUGCAAGUGAAGCCGUGGCUCUGCG [NOX-E36 L-aptamer, U31 2'-methylseleno]”, the binding result in series [1] was “binds”.
As for “GCACGUCCCUCACCGGUGCAAGUGAAGCCGUGGCUCUGCG [NOX-E36 L-aptamer (Spiegelmer, without PEG)]”, the binding result in series [2] (Ca2+ reduced or omitted (strong Ca2+ dependence), chemokine immobilized on CM4/CM5, physiological running buffer, 37 C) is listed as “binds more weakly”; in series [2] (K+ varied, no effect on kinetics, chemokine immobilized on CM4/CM5, physiological running buffer, 37 C), “binds”; in series [2] (Mg2+ varied, minor effect, chemokine immobilized on CM4/CM5, physiological running buffer …), “binds”; in series [2] (Na+ above physiological level, chemokine immobilized on CM4/CM5, physiological running buffer, 37 C) it was “binds more weakly”; in series [3], “binds”; in series [4] it was “binds”. Further, the binding result is listed as “binds” in series [5], “no binding” in series [6] and “binds” in series [7].
